Test results reported in article PMC4294363.

Amino acid sequences for entries named in this document (tags omitted). A change or cut given only in a name is not applied to a line headed by its entry.
UniProt Q9BST9: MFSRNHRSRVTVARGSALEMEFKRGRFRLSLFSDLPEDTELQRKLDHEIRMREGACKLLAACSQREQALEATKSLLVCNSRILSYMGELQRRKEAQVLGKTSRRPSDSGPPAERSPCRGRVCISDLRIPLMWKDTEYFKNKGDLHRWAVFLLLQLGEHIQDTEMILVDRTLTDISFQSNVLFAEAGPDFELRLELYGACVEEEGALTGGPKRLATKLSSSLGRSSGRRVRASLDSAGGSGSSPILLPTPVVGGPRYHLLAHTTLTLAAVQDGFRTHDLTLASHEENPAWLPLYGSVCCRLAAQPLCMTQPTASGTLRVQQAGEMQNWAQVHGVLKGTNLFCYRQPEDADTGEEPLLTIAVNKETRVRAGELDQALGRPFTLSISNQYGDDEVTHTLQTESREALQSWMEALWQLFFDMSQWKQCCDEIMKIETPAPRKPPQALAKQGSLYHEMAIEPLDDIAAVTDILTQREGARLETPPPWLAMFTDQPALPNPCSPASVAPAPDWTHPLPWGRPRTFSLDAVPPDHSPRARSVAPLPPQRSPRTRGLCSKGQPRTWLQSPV
UniProt P61586: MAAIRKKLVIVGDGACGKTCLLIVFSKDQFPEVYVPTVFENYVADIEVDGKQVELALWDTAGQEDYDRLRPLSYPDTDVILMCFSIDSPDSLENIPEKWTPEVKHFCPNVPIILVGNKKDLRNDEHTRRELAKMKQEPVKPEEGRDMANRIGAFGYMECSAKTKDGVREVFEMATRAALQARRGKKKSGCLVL

Biological target: Glutathione-S-transferase fused Rhotekin binding domain (UniProt Q9BST9)
Assay: pull-down; GST-RBD or GST-PBD on agarose beads incubated with total proteins extracted from tumor tissue (metformin-treated or untreated xenograft mice) for 1 h at 4°C, washed with lysis buffer, Western blotted for RhoA, Cdc42 and Rac1; only the target purified

binding: binds
Substance: RhoA (from UniProt P61586 1-193)

These are yes or no findings as the source states them, for the method shown. In cells and extracts the contact can be indirect. A result given as binding can be weak or reduced; the word gives no strength.
